# From the antibiotic and cytotoxicity screens of Wong et al. (2023)
# The hits were mostly taken out for another list; the other results follow.
# Tests used:
# [1] = system: HSkMC (human skeletal muscle cells); assay: cytotoxicity call (relative viability < 0.9); conditions: 10 µM
# [2] = system: HepG2; assay: cytotoxicity call (relative viability < 0.9); conditions: 10 µM
compound,measurement,setting,value
Cc1c(C(=O)NN2CCCCC2)nn(-c2ccc(Cl)cc2Cl)c1-c1ccc(I)cc1,cytotoxicity call,[1],inactive
same,cytotoxicity call,[2],inactive
